Consider 17 substances from publication PMC8877233 (Molecules, 2022).

The data set is described as follows: general procedure: Fmoc solid-phase peptide synthesis; 2-chlorotrityl resin (2-CT resin); DIPCI/HOBt/DIPEA. As to conditions: for cyclisation yield: cyclisation step; for step yield: late stage modification step; for crude mass / isolated yield / crude yield: whole synthesis; for isolated yield / crude yield: scale of the general procedure 81.6 µmol; for crude yield: from resin loading.

The substance “Cyclo-[(2R,3R)-2,3-dihydroxy-4-(octylamino)-4-oxobutanoic Acid-(S)-7-D-Ser-D-Tyr-D-Asn-Gly-Asn-Ser-Asn]” gave a cyclisation yield of 26%, a step yield of 29% and a crude mass of 185 mg. Further, the isolated yield (overall from resin loading) was 8%.
Substance “Cyclo-[Undecanoic Acid-Ser-(R)-7-D-Ser-D-Tyr-D-Asn-Gly-Asn-Ser-Asn]” registered a cyclisation yield of 34% and a step yield of 29%. Besides, the isolated yield (overall from resin loading) is 10%.
“Cyclo-[Undecanoic Acid-D-Ser-Orn-D-Ser-D-Tyr-D-Asn-Gly-Asn-Ser-Asn]” had a cyclisation yield of 77%, a step yield of 5% and an isolated yield of 39%.
In the case of “Cyclo-[Undecanoic Acid-D-Ser-(S)-7-D-Ser-D-Tyr-D-Asn-Gly-Asn-Ser-Asn]”, the cyclisation yield was 45% and the step yield stood at 8%. For the setting “overall from resin loading”, this substance gave an isolated yield of 4%.
Regarding “Cyclo-[Dodecanoic Acid-D-Ser-(S)-7-D-Ser-D-Tyr-D-Asn-Gly-Asn-Ser-Asn]”, the cyclisation yield amounted to 27%, the step yield is recorded as 23% and the crude mass is 195 mg. The substance further gave an isolated yield (overall from resin loading) of 6%.
Regarding “Cyclo-[Dodecanoic Acid-D-Ser-(R)-7-D-Ser-D-Tyr-D-Asn-Gly-Asn-Ser-Asn]”, the cyclisation yield was 45%, the step yield amounted to 37%, the crude mass is reported as 160 mg and the crude yield was found to be 96%. In addition, the isolated yield (overall from resin loading) is recorded as 16%.
Consider “Cyclo-[Dodecanoic Acid-Ser-(S)-7-D-Ser-D-Tyr-D-Asn-Gly-Asn-Ser-Asn]”, for which the cyclisation yield was determined as 32%, the step yield was 12% and the crude mass stood at 195 mg. This substance also gave an isolated yield (overall from resin loading) of 4%.
In turn, “Cyclo-[Undecanoic Acid-D-Ser-(R)-7-D-Ser-D-Tyr-D-Asn-Gly-Asn-Ser-Asn]” yielded a cyclisation yield of 25% and a step yield of 23%. Also, the isolated yield (overall from resin loading) is reported as 6%.
“Cyclo-[Undecanoic Acid-Ser-Orn-D-Ser-D-Tyr-D-Asn-Gly-Asn-Ser-Asn]” yielded a cyclisation yield of 16%, a step yield of 20%, a crude mass of 128 mg and a crude yield of 56%. This substance also had an isolated yield (overall from resin loading) of 2%.
On the same counts, the results for “Cyclo-[Dodecanoic Acid-D-Ser-Orn-D-Ser-D-Tyr-D-Asn-Gly-Asn-Ser-Asn]” are 55%, 11%, 144 mg, 86% and 5%.
“Cyclo-[Undecanoic Acid-Thr-(S)-7-D-Ser-D-Tyr-D-Asn-Gly-Asn-Ser-Asn]” had a cyclisation yield of 45%, a step yield of 6%, a crude mass of 123 mg and a crude yield of 74%. In addition, the isolated yield (overall from resin loading) turned out to be 2%.
As for “Cyclo-[Undecanoic Acid-Ser-(S)-7-D-Ser-D-Tyr-D-Asn-Gly-Asn-Ser-Asn]”, for the setting “on linear precursor”, the cyclisation yield is listed as 43%. This substance also returned an isolated yield (overall from resin loading) of 3%.
In turn, “Cyclo-[Dodecanoic Acid-Ser-(R)-7-D-Ser-D-Tyr-D-Asn-Gly-Asn-Ser-Asn]” had a cyclisation yield of 42% and a step yield of 31%. The substance also came in with an isolated yield (overall from resin loading) of 13%.
For “Cyclo-[(2R,3R)-2,3-dihydroxy-4-(octylamino)-4-oxobutanoic Acid-(R)-7-D-Ser-D-Tyr-D-Asn-Gly-Asn-Ser-Asn]”, the step yield turned out to be 33%. This substance also displayed an isolated yield (overall from resin loading) of 25%.
On to “Cyclo-[Dodecanoic Acid-Ser-Orn-D-Ser-D-Tyr-D-Asn-Gly-Asn-Ser-Asn]”, for which the cyclisation yield came out at 33%, the step yield worked out at 9%, the crude mass came to 70.6 mg and the crude yield was determined as 63%. This substance registered an isolated yield (overall from resin loading) of 2%.
Taken in the same sequence, the figures for “Cyclo-[(2R,3R)-2,3-Dihydroxy-4-(octylamino)-4-oxobutanoic Acid-Orn-D-Ser-D-Tyr-D-Asn-Gly-Asn-Ser-Asn]” were 49%, 16%, 105 mg, 39% and 3%.
In turn, “Cyclo-[Undecanoic Acid-Thr-(R)-7-D-Ser-D-Tyr-D-Asn-Gly-Asn-Ser-Asn]” yielded a cyclisation yield of 67%, a step yield of 34% and a crude mass of 181 mg. The isolated yield (overall from resin loading) came out at 23%.
